# Reference: PubChem BioAssay AID1671190 (National Center for Advancing Translational Sciences (NCATS), 2021)
# The chains behind the UniProt entries cited, without tags or fusion partners. Where a name states a change or a piece, a line headed by the entry shows the natural chain unless it says otherwise.
# UniProt P18054: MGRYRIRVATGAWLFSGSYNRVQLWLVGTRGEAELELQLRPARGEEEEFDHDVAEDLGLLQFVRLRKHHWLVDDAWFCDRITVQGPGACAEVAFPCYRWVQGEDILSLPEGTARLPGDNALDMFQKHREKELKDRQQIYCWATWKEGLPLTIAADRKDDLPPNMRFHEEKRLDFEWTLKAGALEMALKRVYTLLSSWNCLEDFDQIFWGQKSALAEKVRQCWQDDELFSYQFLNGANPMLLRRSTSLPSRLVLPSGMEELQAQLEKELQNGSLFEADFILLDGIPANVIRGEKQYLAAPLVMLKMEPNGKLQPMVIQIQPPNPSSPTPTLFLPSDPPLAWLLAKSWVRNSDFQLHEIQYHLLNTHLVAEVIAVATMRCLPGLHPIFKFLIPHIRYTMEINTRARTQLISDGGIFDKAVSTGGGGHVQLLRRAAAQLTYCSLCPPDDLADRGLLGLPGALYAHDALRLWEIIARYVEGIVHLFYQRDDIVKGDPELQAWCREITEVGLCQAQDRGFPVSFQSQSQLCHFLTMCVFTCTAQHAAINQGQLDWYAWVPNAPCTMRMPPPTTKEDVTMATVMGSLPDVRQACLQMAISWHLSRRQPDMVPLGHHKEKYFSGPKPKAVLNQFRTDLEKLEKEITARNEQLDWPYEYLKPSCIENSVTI
# Hit rate of the full screen: of about 580,000 compounds, about 6,100 (1.1%) were called active. Inconclusive means that the source gave no clear call. Such entries were picked first, then a sample of the others. Calls come from the whole dose curve; as a rule, active = well fitted inhibition curve with a large enough effect; inconclusive = small, poorly fitted or top-dose-only effect, or another doubt; inactive = no such curve, though single readings can be large or run the other way. Potencies beside an inconclusive call are fits to weak or partial responses and may not hold up.
# Biological target: Polyunsaturated fatty acid lipoxygenase ALOX12 (Homo sapiens) (UniProt P18054)
# Test: Primary qHTS assay for inhibitors of human arachidonate 12S-lipoxygenase (ALOX12): Round 2
# Conditions: purified 12hLO, xylenol orange hydroperoxide absorbance; activity change, negative = inhibition: at 108 µM (top of the series) unless noted
# Summary of the method: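 Purified human 12hLO at 150 nM in 25 mM Hepes, 0.01% Triton X-100, pH 7.0, preincubated 15 min at room temperature with compound. Reaction started with 40 uM arachidonic acid, 30 min at room temperature. Hydroperoxide measured by Fe-xylenol orange, 573/405 nm absorbance ratio.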
# % is set by controls: 0 for no effect and ±100 for the full control effect; potency is the fitted concentration of half-maximal effect.
Compound,Potency,"activity change, negative = inhibition"
CCC(C(=O)O)C1CCC(C)C(C(C)C(O)C(C)C(=O)C(CC)C2OC3(C=CC(O)[C@@]4(CC[C@](C)(C5CC[C@@](O)(CC)C(C)O5)O4)O3)C(C)CC2C)O1 (some centres not stated),"inconclusive: 24.3 µM [inhibitor, partial curve, poor fit]",
COc1ccc2c(C)c(CC(=O)NC3CCCCCC3)c(=O)oc2c1OC,,inactive: 0.372%
O=C(Nc1ccc2nc[nH]c(=O)c2c1)c1ccc(Cl)cc1Cl,"inconclusive: 79.4 µM [inhibitor, single point]",
O=C(O)CCCC(=O)NS(=O)(=O)c1ccc(Cl)cc1,"inconclusive: 50.1 µM [inhibitor, single point]",
C/C(=N\Nc1cccc2cccnc12)c1ccc[nH]1,"inconclusive: 2.82 µM [inhibitor, partial curve, poor fit]",
COc1ccc(F)cc1C(=O)NCc1c(C)ncc2c1CCNC2,"inconclusive: 8.91 µM [inhibitor, partial curve]",
Cc1ccc(C(=O)COC(=O)c2ccc3c(c2)C(=O)N(c2cccc4ncccc24)C3=O)cc1,"inconclusive: 79.4 µM [inhibitor, partial curve, poor fit]",
Cc1ccc(NC(=O)c2nc(S(C)(=O)=O)ncc2N(Cc2ccco2)Cc2ccco2)cc1,"inconclusive: 100 µM [inhibitor, single point]",
COc1ccc(Cl)cc1C(=O)NNC1CC(=O)N(Cc2ccc(Cl)cc2)C1=O (configuration not stated),"inconclusive: 35.5 µM [inhibitor, partial curve, poor fit]",
Cc1sc(NC(=O)c2ccsc2)c(C#N)c1C,"inconclusive: 44.7 µM [inhibitor, partial curve, poor fit]",
N#Cc1c(Nc2cccc(F)c2)sc2c(O)cc(=O)[nH]c12,"inconclusive: 50.1 µM [inhibitor, partial curve, poor fit]",
COc1ccc(CCNC(=O)C(=O)NCC2OCCN2S(=O)(=O)c2ccc3c(c2)OCCO3)cc1 (configuration not stated),,inactive: 18.6%
C=CCc1cc2c(oc(=O)c3ccccc32)c(C)c1O,"inconclusive: 141 µM [inhibitor, partial curve, poor fit]",
CCOC(=O)c1[nH]c(C)c(C(=O)OCc2ccc(C(N)=O)cc2)c1C,"inconclusive: 31.6 µM [inhibitor, partial curve, poor fit]",
Cc1nn(Cc2ccccc2)c(C)c1/C=N/NC(=O)c1ccccc1O,,inactive: 0%
O=C(CSc1nc(-c2ccccc2F)nc2cc(=O)[nH]n12)N1CCc2ccccc21,"inconclusive: 39.8 µM [inhibitor, partial curve, poor fit]",
S=c1[nH]c2ccc(Cl)cc2[nH]1,"inconclusive: 89.1 µM [inhibitor, partial curve, poor fit]",
Cc1c(C(=O)/C=C/c2ccccc2F)c2cc(O)ccc2n1C,"inconclusive: 50.1 µM [inhibitor, partial curve, poor fit]",
CC(C(=O)NC(C)(C)C)N(c1ccc(F)cc1)S(C)(=O)=O (configuration not stated),,inactive: -1.63%
COc1ccc(C(=O)N2CCCC(c3nc(-c4cnccn4)no3)CCNC(=O)CC2)cc1 (configuration not stated),,inactive: 52.4%
CSc1nc2c(=S)[nH]c(=S)[nH]c2s1,active: 14.1 µM,
O=C(/C=C/c1ccc([N+](=O)[O-])cc1)NCc1ccccn1,"inconclusive: 11.2 µM [inhibitor, full curve, poor fit]",
Cc1ccc(NC2CCCN(C(=O)c3nonc3C)C2)cc1C (configuration not stated),"inconclusive: 56.2 µM [inhibitor, full curve, poor fit]",

Compound,Potency,"activity change, negative = inhibition"
CCN1c2cc(C(=O)NCc3ccc(SC)cc3)ccc2C(=O)N2CCCCCC21 (configuration not stated),,inactive: -9.75%
O=C(Nc1ccc(F)cc1F)c1ccc(-c2ccccc2)s1,"inconclusive: 158 µM [inhibitor, partial curve, poor fit]",
Cc1ccc(-c2nc3ccccc3[nH]2)cc1NC(=S)NC(=O)c1ccccc1Br,,inactive: 9.07%
Cc1cccc(-n2c3nc(=O)[nH]c(=O)c-3cc3cc([N+](=O)[O-])ccc32)c1,"inconclusive: 89.1 µM [inhibitor, partial curve, poor fit]",
CCOc1ccccc1C(=O)Nc1cc2c(cc1N1CCCC1)n(CC)c(=O)n2CC,"inconclusive: 63.1 µM [inhibitor, partial curve, poor fit]",
COc1cccc(N2CCN(C(C)C(=O)NC34CC5CC(CC(C5)C3)C4)CC2)c1 (configuration not stated),,inactive: 4.04%
O=S(=O)(c1cnc[nH]1)N1CCN(C(c2ccc(F)cc2)c2ccc(F)cc2)CC1,"inconclusive: 100 µM [inhibitor, single point]",
O=C1/C(=C/c2ccco2)SC(=S)N1CC1CCCO1 (configuration not stated),"inconclusive: 126 µM [inhibitor, partial curve, poor fit]",
Nc1nccnc1C(=O)NCC(F)(F)F,,inactive: -6.08%
CCC(C(=O)Nc1ncc(C)s1)c1ccccc1 (configuration not stated),"inconclusive: 35.5 µM [inhibitor, partial curve, poor fit]",
CC(=O)c1ccc(S(=O)(=O)Nc2ccc(C(=O)NCC(c3ccccc3)N(C)C)cc2)cc1 (configuration not stated),"inconclusive: 112 µM [inhibitor, single point]",
Cc1cc2c(cc1S(=O)(=O)N1CCc3ccccc31)NC(=O)CO2,,inactive: -25.9%
CCN(CC)C(=O)CSc1ncccc1-c1nc2ccccc2[nH]1,,inactive: -28%
Cc1cc(C(=O)N(Cc2cccs2)C2CC2)c(C)o1,,inactive: -27%
CN1CCc2[nH]cnc2C12CCN(C(=O)c1cccc(-n3cccn3)c1)CC2,"inconclusive: 4.47 µM [inhibitor, full curve, poor fit]",
COc1ccc2sc(-c3ccccc3OC)c(-c3ccc(O)cc3)c2c1,"inconclusive: 63.1 µM [inhibitor, partial curve, poor fit]",
COc1ccccc1/C=N/NC(=S)NCc1ccco1,"inconclusive: 44.7 µM [inhibitor, partial curve, poor fit]",
CCOc1ccc(CCNC(=O)CCS(=O)(=O)c2ccc(Cl)cc2)cc1OCC,"inconclusive: 39.8 µM [inhibitor, partial curve, poor fit]",
COCC1CN(C(=O)c2cc(C)n(C)n2)CC12CCNCC2 (configuration not stated),"inconclusive: 25.1 µM [inhibitor, single point]",
CCCC(=O)Nc1ccc2nn(-c3ccc(CC)cc3)nc2c1,"inconclusive: 50.1 µM [inhibitor, single point]",
CN(C)S(=O)(=O)c1ccc(S(=O)(=O)N(CC(=O)Nc2ccccc2)Cc2ccco2)cc1,,inactive: 0%
O=C(CCCn1c(=O)c2sccc2n(Cc2c(F)cccc2Cl)c1=O)NCc1ccccc1,,inactive: 0.786%
Cc1ccc(C(=O)Nc2ccc(Cc3ccncc3)cc2)cc1[N+](=O)[O-],"inconclusive: 25.1 µM [inhibitor, single point]",

Compound,Potency,"activity change, negative = inhibition"
COc1ccccc1Cn1c(CNS(=O)(=O)c2ccc(Cl)s2)nc2cccnc21,,inactive: -23.6%
CCCC1N=C2c3ccccc3N=C(SCC(=O)Nc3ccccc3)N2C1=O (configuration not stated),"inconclusive: 79.4 µM [inhibitor, single point]",
Cc1cc2nc3n(c(=O)c2n1CC(=O)Nc1ccc(Br)cc1)CCCC3,"inconclusive: 35.5 µM [inhibitor, full curve, poor fit]",
CC12CC3CC(C)(C1)CC(c1ccc(O)cc1)(C3)C2,"inconclusive: 44.7 µM [inhibitor, partial curve, poor fit]",
Cc1ccc(C(=O)/C(C#N)=C/c2ccccc2OCc2ccc(Br)cc2)cc1,"inconclusive: 20 µM [inhibitor, partial curve, poor fit]",
CN1CCN(c2nc(-c3ccc(N(C)C)cc3)nc3ccccc23)CC1,"inconclusive: 39.8 µM [inhibitor, partial curve, poor fit]",
O=C1CCCc2c1cc(C(=O)NC1CCCCCC1)c(=O)n2-c1ccc(C(F)(F)F)cc1,,inactive: -22.4%
CCOc1cccc(/C=C2\NC(=S)N(c3ccccc3)C2=O)c1O,"inconclusive: 3.55 µM [inhibitor, full curve, poor fit]",
CCc1cccc(C)c1NC(=O)Cn1ccn(-c2ccccc2)c(=O)c1=O,,inactive: 27.8%
CC(C)(C)SCC(=O)NCC1CCN(c2ccccc2)C1 (configuration not stated),"inconclusive: 31.6 µM [inhibitor, single point]",
CCN1CCN(c2ccc(S(=O)(=O)N3CCCCC3)cc2NC(=O)c2ccc(F)cc2)CC1,"inconclusive: 50.1 µM [inhibitor, partial curve, poor fit]",
C=CCSc1ccccc1C(=O)Nc1ncn[nH]1,"inconclusive: 28.2 µM [inhibitor, single point]",
CCC(=O)N1CCc2cc(Br)cc(S(=O)(=O)N3CCCC(C(=O)Nc4ccc(CC)cc4)C3)c21 (configuration not stated),,inactive: -16.2%
Cc1ccc(Cc2c(C)nc3nc(SCC(=O)NCCN4CCCCCC4)nn3c2C)cc1,"inconclusive: 17.8 µM [inhibitor, partial curve, poor fit]",
CC(Sc1cccc[n+]1[O-])C(=O)Nc1ccc([N+](=O)[O-])cc1Cl (configuration not stated),,inactive: -12.9%
Cc1c(S(=O)(=O)NCCc2ccccc2)c(=O)n(C)c(=O)n1C,,inactive: 10.8%
O=Cc1cc(F)ccc1N1CCOCC1,"inconclusive: 44.7 µM [inhibitor, partial curve, poor fit]",
S=c1[nH]nc(Nc2ccccc2Cl)s1,active: 31.6 µM,
COc1ccc(NS(=O)(=O)c2ccc(SC)cc2)cc1,,inconclusive: -34.5% [inhibitor]
CN(C)NC(=O)c1cccc(Cl)c1,"inconclusive: 126 µM [inhibitor, single point]",
O=C(CSC1=NS(=O)(=O)c2cc(Cl)ccc2N1)NCc1ccc(F)cc1,"inconclusive: 63.1 µM [inhibitor, partial curve, poor fit]",

# Rewritten with bars between the fields: part of the list above
Compound | Potency | activity change, negative = inhibition
CCOc1cccc(/C=C2\NC(=S)N(c3ccccc3)C2=O)c1O | inconclusive: 3.55 µM [inhibitor, full curve, poor fit] | 
CCc1cccc(C)c1NC(=O)Cn1ccn(-c2ccccc2)c(=O)c1=O |  | inactive: 27.8%
CC(C)(C)SCC(=O)NCC1CCN(c2ccccc2)C1 (configuration not stated) | inconclusive: 31.6 µM [inhibitor, single point] | 
CCN1CCN(c2ccc(S(=O)(=O)N3CCCCC3)cc2NC(=O)c2ccc(F)cc2)CC1 | inconclusive: 50.1 µM [inhibitor, partial curve, poor fit] | 
C=CCSc1ccccc1C(=O)Nc1ncn[nH]1 | inconclusive: 28.2 µM [inhibitor, single point] | 
